Measurements taken from PMC4673280.
These are yes or no findings as the source states them, for the method shown. Binding seen in cells or lysates may run through a third protein. Some binding calls cover weakened binding; strength is not graded here.

Sequences of proteins named here, by UniProt entry; tags and fusion partners are left off.
UniProt Q00987: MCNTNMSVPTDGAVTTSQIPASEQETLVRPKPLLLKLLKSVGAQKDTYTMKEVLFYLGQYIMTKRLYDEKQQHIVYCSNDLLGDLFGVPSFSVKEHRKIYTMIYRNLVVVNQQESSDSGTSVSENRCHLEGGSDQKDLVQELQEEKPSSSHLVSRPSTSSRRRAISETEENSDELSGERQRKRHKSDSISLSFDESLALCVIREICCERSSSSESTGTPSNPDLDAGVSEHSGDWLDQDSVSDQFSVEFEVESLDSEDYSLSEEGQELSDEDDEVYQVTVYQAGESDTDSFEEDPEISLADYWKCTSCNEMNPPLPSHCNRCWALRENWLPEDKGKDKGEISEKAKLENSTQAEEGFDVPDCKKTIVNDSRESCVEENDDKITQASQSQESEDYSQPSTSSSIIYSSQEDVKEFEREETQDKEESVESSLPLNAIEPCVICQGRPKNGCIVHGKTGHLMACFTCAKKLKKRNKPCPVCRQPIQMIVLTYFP

Molecular target: MDM2 (endogenous, HEK293 cells) (human (endogenous in HEK293)) (UniProt Q00987)
Test: co-IP; endogenous proteins, extracts of HEK293 cells; IP with anti-MDM2 (SMP14) or anti-p73 (ER-15), control mouse IgG; lysis buffer 50 mM Tris-HCl pH 8.0, 5 mM EDTA, 150 mM NaCl, 0.5% NP-40; Western blot

B1: p73 (endogenous, HEK293 cells) (protein, UniProt O15350 1-636)
chain: MAQSTATSPDGGTTFEHLWSSLEPDSTYFDLPQSSRGNNEVVGGTDSSMDVFHLEGMTTSVMAQFNLLSSTMDQMSSRAASASPYTPEHAASVPTHSPYAQPSSTFDTMSPAPVIPSNTDYPGPHHFEVTFQQSSTAKSATWTYSPLLKKLYCQIAKTCPIQIKVSTPPPPGTAIRAMPVYKKAEHVTDVVKRCPNHELGRDFNEGQSAPASHLIRVEGNNLSQYVDDPVTGRQSVVVPYEPPQVGTEFTTILYNFMCNSSCVGGMNRRPILIIITLEMRDGQVLGRRSFEGRICACPGRDRKADEDHYREQQALNESSAKNGAASKRAFKQSPPAVPALGAGVKKRRHGDEDTYYLQVRGRENFEILMKLKESLELMELVPQPLVDSYRQQQQLLQRPSHLQPPSYGPVLSPMNKVHGGMNKLPSVNQLVGQPPPHSSAATPNLGPVGPGMLNNHGHAVPANGEMSSSHSAQSMVSGSHCTPPPPYHADPSLVSFLTGLGCPNCIEYFTSQGLQSIYHLQNLTIEDLGALKIPEQYRMTIWRGLQDLKQGHDYSTAQQLLRSSNAATISIGGSGELQRQRVMEAVHFRVRHTITIPNRGGPGGGPDEWADFGFDLPDCKARKQPIKEEFTEAEIH
In the case of B1, the binding is reported as “binds”.
